# In PubChem BioAssay AID540276 (National Center for Advancing Translational Sciences (NCATS), 2011):
# Hit rate of the full screen: of about 300,000 compounds, about 5,400 (1.8%) were called active. The shares of active, inactive and inconclusive entries below differ from those in the screen. Calls follow the shape of the full dose curve; tested in HEK293 cells. Potencies of inconclusive entries are doubtful fits and often do not repeat.
# Experiment: qHTS for inhibitors of binding or entry into cells for Marburg Virus
# Conditions: Marburg virus pseudotyped entry inhibition, cell reporter; activity change, negative = inhibition: at 37.8 µM (top of the series) unless noted
# % is scaled to controls: 0 for no effect and ±100 for the full control effect; potency is read from the fitted curve at half-maximal effect.
SMILES,"activity change, negative = inhibition",Potency
CCN(CC)c1ccc(N=Cc2c(O)n(Cc3ccco3)c(=O)[nH]c2=O)cc1,inactive: 28.7% [at 14.2 µM],
BrC(/C=C\c1ccccc1)=N/Nc1nc(N2CCOCC2)nc(N2CCOCC2)n1,,"inconclusive: 11.6 µM [inhibitor, partial curve]"
CCCc1nc2oc3c(Cl)ncnc3c2c2c1CCCC2,inactive: -2.6% [at 46.1 µM],
CN(CC(=O)Nc1ccc(F)cc1)C(=O)COC(=O)c1cc(S(=O)(=O)N(C)C)ccc1N1CCCC1,,"inconclusive: 6.31 µM [activator, single point]"
CN(CC(=O)N1CCN(Cc2ccccc2)CC1)C(=O)Cc1cccc2ccccc12,,"inconclusive: 35.5 µM [inhibitor, single point]"
COc1ccc(Cl)cc1NC(=O)NCCN1CCCCC1,,"inconclusive: 6.31 µM [inhibitor, full curve, poor fit]"
CCCCC(CC)C(=O)Nc1ccc(C)c(O)c1 (centres undefined),,"inconclusive: 7.08 µM [inhibitor, partial curve, poor fit]"
O=C(/C=C/c1ccc2c(c1)OCO2)c1ccccn1,inactive: 23.8% [at 46.1 µM],
O=C(Nc1cccc(Cl)c1)c1cc2c(=O)[nH]c3ccccc3c2s1,inactive: 4.39% [at 46.1 µM],
COc1cc2[nH]c(C(=O)Nc3ccc4c(c3)OCCO4)cc2c(OC)c1OC,,"inconclusive: 1.26 µM [activator, partial curve, poor fit]"
CC[n+]1ccc2cc(OC)c(OC)cc2c1Cc1ccc(OC)c(OC)c1,,"inconclusive: 6.31 µM [activator, single point]"
O=C(Nc1nccs1)c1cc2sccc2n1Cc1ccc(F)cc1,,"inconclusive: 29.1 µM [inhibitor, single point]"
CCCOc1ccc2ccccc2c1/C=N/n1c(C)nnc1-n1nc(C)cc1C,,"inconclusive: 7.94 µM [inhibitor, partial curve, poor fit]"
CCOc1ccc(NC(=O)C(c2ccccn2)N(C(=O)CCl)c2ccc(F)cc2)cc1 (centres undefined),inactive: -12.5%,
COc1ccc(C(=O)NC(C)c2ccc(-n3ccnc3)cc2)cc1[N+](=O)[O-] (centres undefined),inactive: 3.86% [at 46.1 µM],
CCN(CC)S(=O)(=O)c1cccc(-c2nnc(SCC(=O)c3cc(C)n(C4CC4)c3C)o2)c1,,"inconclusive: 1.83 µM [inhibitor, full curve, poor fit]"
COc1ccc(CCN2CC(C(=O)NCc3ccc(F)cc3)CC2=O)cc1OC (centres undefined),inactive: 16.2%,
Cc1c2cnn(CC(=O)NCCCN3CC(C)CC(C)C3)c(=O)c2c(C)n1Cc1ccccc1Cl (centres undefined),,"inconclusive: 10 µM [inhibitor, partial curve, poor fit]"
COc1ccc(C2SCC(=O)N2CC23CC4CC(CC(C4)C2)C3)cc1 (centres undefined),,"inconclusive: 29.1 µM [inhibitor, single point]"
CO/N=C/C(C(C)=O)C(=O)Nc1ccc(Cl)cc1Cl (centres undefined),,"inconclusive: 10 µM [inhibitor, partial curve, poor fit]"
CCN(CC)CCCNC(=O)c1cc(-c2cccc(Cl)c2)on1,,"inconclusive: 29.1 µM [inhibitor, single point]"
CSc1nc(C)cc(C)c1S(=O)(=O)c1ccccc1C,,"inconclusive: 35.5 µM [inhibitor, single point]"
Cn1c(=O)c2cn(-c3ccc4c(c3)OCCO4)cc2n(C)c1=O,,"inconclusive: 2.82 µM [activator, full curve]"

# A second format for part of the listing above.
SMILES | activity change, negative = inhibition | Potency
CCCc1nc2oc3c(Cl)ncnc3c2c2c1CCCC2 | inactive: -2.6% [at 46.1 µM] | 
COc1ccc(Cl)cc1NC(=O)NCCN1CCCCC1 |  | inconclusive: 6.31 µM [inhibitor, full curve, poor fit]
CCCCC(CC)C(=O)Nc1ccc(C)c(O)c1 (centres undefined) |  | inconclusive: 7.08 µM [inhibitor, partial curve, poor fit]
O=C(/C=C/c1ccc2c(c1)OCO2)c1ccccn1 | inactive: 23.8% [at 46.1 µM] | 
COc1cc2[nH]c(C(=O)Nc3ccc4c(c3)OCCO4)cc2c(OC)c1OC |  | inconclusive: 1.26 µM [activator, partial curve, poor fit]
CC[n+]1ccc2cc(OC)c(OC)cc2c1Cc1ccc(OC)c(OC)c1 |  | inconclusive: 6.31 µM [activator, single point]
CCCOc1ccc2ccccc2c1/C=N/n1c(C)nnc1-n1nc(C)cc1C |  | inconclusive: 7.94 µM [inhibitor, partial curve, poor fit]
CCOc1ccc(NC(=O)C(c2ccccn2)N(C(=O)CCl)c2ccc(F)cc2)cc1 (centres undefined) | inactive: -12.5% | 
COc1ccc(C(=O)NC(C)c2ccc(-n3ccnc3)cc2)cc1[N+](=O)[O-] (centres undefined) | inactive: 3.86% [at 46.1 µM] | 
CCN(CC)S(=O)(=O)c1cccc(-c2nnc(SCC(=O)c3cc(C)n(C4CC4)c3C)o2)c1 |  | inconclusive: 1.83 µM [inhibitor, full curve, poor fit]
COc1ccc(CCN2CC(C(=O)NCc3ccc(F)cc3)CC2=O)cc1OC (centres undefined) | inactive: 16.2% | 
Cc1c2cnn(CC(=O)NCCCN3CC(C)CC(C)C3)c(=O)c2c(C)n1Cc1ccccc1Cl (centres undefined) |  | inconclusive: 10 µM [inhibitor, partial curve, poor fit]
COc1ccc(C2SCC(=O)N2CC23CC4CC(CC(C4)C2)C3)cc1 (centres undefined) |  | inconclusive: 29.1 µM [inhibitor, single point]
CSc1nc(C)cc(C)c1S(=O)(=O)c1ccccc1C |  | inconclusive: 35.5 µM [inhibitor, single point]

# Next part:

SMILES,"activity change, negative = inhibition",Potency
CCOc1ccc(N2CC(C(=O)Nc3cc(OCC)c(N4CCOCC4)cc3OCC)CC2=O)cc1 (centres undefined),,"inconclusive: 2.82 µM [activator, single point]"
Cc1ccc(C2CC2c2n[nH]c(=S)n2-c2cccc(C)c2)cc1 (centres undefined),,"inconclusive: 35.5 µM [inhibitor, single point]"
CCN(CC)S(=O)(=O)c1ccc2c(c1)nc(CCC(=O)Nc1ccc3c(c1)OCO3)n2CC,,"inconclusive: 0.708 µM [activator, full curve, poor fit]"
COc1ccc(C)cc1Nc1nc(-c2c[nH]c3ccccc23)cs1,inactive: 10.2% [at 46.1 µM],
Cc1cc(C(=O)NNC(=O)c2ccc(S(=O)(=O)N(C)C)cc2)c(C)o1,,"inconclusive: 5.62 µM [activator, single point]"
Cc1cc(SCC(=O)NC(=O)NCc2ccco2)nc2ccccc12,inactive: -28.6%,
NCC/C=C1/c2ccccc2CSc2ccccc21,,"inconclusive: 25.1 µM [inhibitor, single point]"
Fc1ccc(CN(Cc2ccccc2)C(c2cccs2)c2nnnn2C2CCCCC2)cc1 (centres undefined),,"inconclusive: 5.62 µM [inhibitor, partial curve, poor fit]"
COc1ccc(CN(C)CC(=O)Nc2ccc(SC(F)F)cc2)cc1OC,,"inconclusive: 22.4 µM [inhibitor, single point]"
CC1=C(C(=O)Nc2nc3ccccc3s2)C(c2ccco2)C(C#N)=C(SCC(=O)NC2CCCCC2)N1 (centres undefined),,"inconclusive: 20.6 µM [inhibitor, partial curve, poor fit]"
O=C(NCCc1ccccc1)c1oc2ccccc2c1COc1ccccc1,,"inconclusive: 25.1 µM [inhibitor, partial curve, poor fit]"
S=c1[nH]nc(CSc2nc3ccccc3s2)o1,inactive: -0.447%,
COc1ccc(S(=O)(=O)N2CCC(C(N)=O)CC2)c2ccccc12,,"inconclusive: 0.708 µM [activator, full curve, poor fit]"
Cc1ccc(SCc2cc(=O)c3c(=O)n(-c4ccccc4)[nH]c3[nH]2)cc1,,"inconclusive: 10 µM [activator, partial curve, poor fit]"
Cc1ccc(C)c(Cn2c(C3CC(=O)N(c4ccccc4C)C3)nc3ccccc32)c1 (centres undefined),,"inconclusive: 15.8 µM [inhibitor, single point]"
O=C1c2ccccc2C(=O)N1c1cccnc1,,"inconclusive: 29.1 µM [activator, single point]"
Cc1ccc(Nc2nc(C)nc(N)c2S(=O)(=O)c2ccccc2)cc1,inactive: 15.4% [at 46.1 µM],
O=C(NC(Cc1c[nH]c2ccccc12)C(=O)NCCCN1CCOCC1)c1cccs1 (centres undefined),,"inconclusive: 1 µM [inhibitor, partial curve, poor fit]"
O=C1CCC([N+](=O)[O-])C(c2cccc([N+](=O)[O-])c2)N1 (centres undefined),inactive: -3.76% [at 46.1 µM],
Cn1nccc1NC(=O)Nc1cccc(Cl)c1Cl,,"inconclusive: 35.5 µM [inhibitor, single point]"
O=C(Cc1ccc(Br)cc1)NC1CCCc2ccccc21 (centres undefined),,"inconclusive: 7.94 µM [inhibitor, partial curve, poor fit]"
CC12CC3CC(C)(C1)CC(CN)(C3)C2,,"inconclusive: 35.5 µM [inhibitor, single point]"
CC(C)=NOC(=O)c1ccc(-c2ccccc2)cc1,inactive: 7.41%,

SMILES,"activity change, negative = inhibition",Potency
Cc1ccc(NC(=O)CSc2ncn[nH]2)cc1,,"inconclusive: 2.82 µM [activator, partial curve, poor fit]"
COc1cc(C)cc2oc(=O)c(CC(=O)NCc3cccc(Cl)c3)c(C)c12,inactive: -7.19% [at 46.1 µM],
O=C(NC(=S)Nc1cccc(S(=O)(=O)NC2=NCCC2)c1)c1cc(-c2ccco2)nc2ccccc12,,"inconclusive: 0.562 µM [inhibitor, full curve, poor fit]"
CCCC1Nc2ccc(C(=O)O)cc2C2C=CCC12 (centres undefined),inactive: -4.41%,
CCCSc1ncc(Cl)c(C(=O)Nc2c(C(=O)Nc3ccc(C)cc3)oc3ccccc23)n1,inactive: 9.94% [at 46.1 µM],
Cc1ccc(/C=N/NC(=O)Cc2ccc(Cl)cc2)c(O)c1,,"inconclusive: 35.5 µM [inhibitor, single point]"
O=C(Nc1ccccc1)/C(=C1\CCCN1)[N+](=O)[O-],,"inconclusive: 11.2 µM [activator, partial curve, poor fit]"
O=C(NCc1ccccn1)/C(=N/O)c1ccccc1,,"inconclusive: 31.6 µM [activator, single point]"
COc1cc2c(=O)n(CC3CCCO3)c(=O)n(CC(=O)Nc3cccc(Cl)c3)c2cc1OC (centres undefined),,inactive
Cc1cc2oc(C(=O)Nc3ccc(S(=O)(=O)N4CCCCCC4)cc3)cc(=O)c2cc1C,inactive: 10.9% [at 46.1 µM],
COc1ccc(C2=NOC(C(=O)N3CCCCCC3)C2)cc1OC (centres undefined),,"inconclusive: 3.55 µM [activator, single point]"
Cn1cc(Cl)c(C(=O)NNC(=S)NCc2ccco2)n1,inactive: 5.18%,
CCOc1ccccc1NC(=O)c1cc2ccccc2oc1=O,,"inconclusive: 3.55 µM [activator, single point]"
COc1ccc(-n2c(SCC(=O)Nc3sc4c(c3C#N)CCCC4)nnc2-c2ccccc2OC)cc1,,"inconclusive: 17.8 µM [inhibitor, partial curve, poor fit]"
C=CCn1cccc(C(=O)Nc2cc(OC)cc(OC)c2)c1=O,,"inconclusive: 28.2 µM [activator, partial curve, poor fit]"
Cc1cc(NC(=O)c2ccc(F)cc2)n(CCOC(=O)c2ccc(F)cc2)n1,,"inconclusive: 3.16 µM [inhibitor, partial curve, poor fit]"
COc1cccc(C(=O)Nc2ccc(NC(=O)C(C)(C)C)cn2)c1,,active: 12.6 µM
O=C(Cc1ccc(-n2cccc2)cc1)NCc1cccs1,,"inconclusive: 1.26 µM [inhibitor, partial curve, poor fit]"
c1cc2c(cc1C1=NNC(=NC3CC3)SC1)OCCO2,,active: 0.326 µM
O=C(c1cccs1)c1sccc1Cc1ccccc1,inactive: 16.9% [at 46.1 µM],
CC(=O)N/C(=N/c1nc(C)cc(C)n1)Nc1cccc(C)c1C,inactive: 15.4%,
COCCNS(=O)(=O)c1ccc2c(c1)oc(=O)c1cc(S(=O)(=O)NCCOC)ccc12,inactive: 0.77%,
O=C(NCC(=O)N1CCN(c2ccccc2O)CC1)c1ccccc1,,"inconclusive: 1 µM [activator, full curve, poor fit]"
